In paper doi:10.1101/2021.03.29.437469:
These are yes or no findings as the source states them, for the method shown. Binding seen in cells or lysates may run through a third protein. Some binding calls cover weakened binding; strength is not graded here. For some of these results: Tags and fused reporters may be left off the sequences shown.

Protein sequences, listed by entry. Tags and fused reporters are not part of them.
UniProt P24783: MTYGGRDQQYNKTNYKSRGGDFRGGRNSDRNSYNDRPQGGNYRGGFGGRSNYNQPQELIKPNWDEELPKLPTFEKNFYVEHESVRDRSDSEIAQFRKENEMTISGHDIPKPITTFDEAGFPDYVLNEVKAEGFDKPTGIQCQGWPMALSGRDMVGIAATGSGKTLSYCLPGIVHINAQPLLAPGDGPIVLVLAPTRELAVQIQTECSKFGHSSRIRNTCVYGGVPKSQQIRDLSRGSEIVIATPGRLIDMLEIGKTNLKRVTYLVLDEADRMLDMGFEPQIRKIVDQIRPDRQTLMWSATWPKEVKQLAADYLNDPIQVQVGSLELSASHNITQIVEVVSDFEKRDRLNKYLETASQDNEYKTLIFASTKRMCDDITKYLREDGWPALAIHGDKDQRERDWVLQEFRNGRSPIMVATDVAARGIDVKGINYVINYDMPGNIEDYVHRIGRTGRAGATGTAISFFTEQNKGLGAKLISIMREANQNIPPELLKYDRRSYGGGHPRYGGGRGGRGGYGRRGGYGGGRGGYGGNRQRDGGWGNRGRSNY

T1: C-terminally TAP-tagged Cbc1p (S. cerevisiae) (UniProt P34160)
T1 sequence: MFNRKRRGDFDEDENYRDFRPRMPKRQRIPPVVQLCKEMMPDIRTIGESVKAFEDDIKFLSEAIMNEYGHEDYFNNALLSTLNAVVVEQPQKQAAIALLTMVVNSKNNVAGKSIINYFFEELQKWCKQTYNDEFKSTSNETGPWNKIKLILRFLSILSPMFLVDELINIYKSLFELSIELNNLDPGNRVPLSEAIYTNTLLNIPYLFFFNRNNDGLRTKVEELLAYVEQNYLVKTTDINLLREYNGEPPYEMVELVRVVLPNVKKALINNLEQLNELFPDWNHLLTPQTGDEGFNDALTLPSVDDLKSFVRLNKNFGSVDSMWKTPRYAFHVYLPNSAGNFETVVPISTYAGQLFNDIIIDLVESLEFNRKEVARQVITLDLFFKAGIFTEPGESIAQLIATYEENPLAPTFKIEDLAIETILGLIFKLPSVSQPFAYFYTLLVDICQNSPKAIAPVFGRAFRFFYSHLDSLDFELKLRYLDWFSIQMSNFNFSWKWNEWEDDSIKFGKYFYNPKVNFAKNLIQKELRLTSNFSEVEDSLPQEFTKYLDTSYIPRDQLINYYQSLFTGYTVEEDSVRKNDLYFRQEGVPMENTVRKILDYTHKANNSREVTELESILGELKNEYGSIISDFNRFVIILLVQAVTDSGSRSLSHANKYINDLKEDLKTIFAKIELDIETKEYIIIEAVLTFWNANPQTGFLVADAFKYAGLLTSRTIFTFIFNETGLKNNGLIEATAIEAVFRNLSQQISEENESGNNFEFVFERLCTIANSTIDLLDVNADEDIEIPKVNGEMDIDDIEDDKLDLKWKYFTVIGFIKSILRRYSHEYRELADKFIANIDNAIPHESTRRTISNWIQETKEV

T2: C-terminally TAP-tagged Tif4631p (S. cerevisiae) (UniProt P39935)
T2 sequence: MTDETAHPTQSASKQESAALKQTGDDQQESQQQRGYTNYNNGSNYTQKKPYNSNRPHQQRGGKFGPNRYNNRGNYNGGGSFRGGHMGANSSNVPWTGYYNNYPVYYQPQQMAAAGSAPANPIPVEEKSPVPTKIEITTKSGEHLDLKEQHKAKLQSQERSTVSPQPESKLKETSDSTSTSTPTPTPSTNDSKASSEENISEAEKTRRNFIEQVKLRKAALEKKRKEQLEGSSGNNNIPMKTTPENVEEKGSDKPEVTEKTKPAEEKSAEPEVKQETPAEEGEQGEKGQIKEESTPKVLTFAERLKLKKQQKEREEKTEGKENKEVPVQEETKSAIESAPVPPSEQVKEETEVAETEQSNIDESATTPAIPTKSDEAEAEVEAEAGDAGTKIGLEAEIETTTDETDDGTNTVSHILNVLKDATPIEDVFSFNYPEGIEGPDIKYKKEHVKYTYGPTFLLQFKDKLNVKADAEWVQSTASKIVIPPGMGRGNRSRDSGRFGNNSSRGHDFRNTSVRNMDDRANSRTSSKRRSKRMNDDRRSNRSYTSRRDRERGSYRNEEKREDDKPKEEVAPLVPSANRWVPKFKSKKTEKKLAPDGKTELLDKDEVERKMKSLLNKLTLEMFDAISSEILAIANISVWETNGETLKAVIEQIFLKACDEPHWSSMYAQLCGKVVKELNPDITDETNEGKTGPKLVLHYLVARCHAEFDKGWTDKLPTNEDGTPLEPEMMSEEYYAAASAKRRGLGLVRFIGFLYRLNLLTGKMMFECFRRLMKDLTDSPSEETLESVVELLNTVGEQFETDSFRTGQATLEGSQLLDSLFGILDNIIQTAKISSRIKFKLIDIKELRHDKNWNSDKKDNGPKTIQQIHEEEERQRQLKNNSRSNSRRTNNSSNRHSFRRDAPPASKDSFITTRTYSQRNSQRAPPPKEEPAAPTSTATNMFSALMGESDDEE

T3: Upf3p-HA (S. cerevisiae) (UniProt P48412)
T3 sequence: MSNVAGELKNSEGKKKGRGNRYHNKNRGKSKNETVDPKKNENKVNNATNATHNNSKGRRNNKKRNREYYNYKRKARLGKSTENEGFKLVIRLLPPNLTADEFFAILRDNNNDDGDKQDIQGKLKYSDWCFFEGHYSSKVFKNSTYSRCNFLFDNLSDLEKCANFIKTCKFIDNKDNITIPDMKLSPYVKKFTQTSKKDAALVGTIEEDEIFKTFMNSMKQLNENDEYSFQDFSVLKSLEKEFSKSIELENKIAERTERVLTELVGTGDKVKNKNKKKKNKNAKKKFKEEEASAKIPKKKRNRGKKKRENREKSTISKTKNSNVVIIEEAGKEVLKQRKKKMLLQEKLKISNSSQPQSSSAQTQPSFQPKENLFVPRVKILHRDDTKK

T4: TAP-tagged Tif4631p-ΔRRM1 (S. cerevisiae) (UniProt P39935)
T4 sequence: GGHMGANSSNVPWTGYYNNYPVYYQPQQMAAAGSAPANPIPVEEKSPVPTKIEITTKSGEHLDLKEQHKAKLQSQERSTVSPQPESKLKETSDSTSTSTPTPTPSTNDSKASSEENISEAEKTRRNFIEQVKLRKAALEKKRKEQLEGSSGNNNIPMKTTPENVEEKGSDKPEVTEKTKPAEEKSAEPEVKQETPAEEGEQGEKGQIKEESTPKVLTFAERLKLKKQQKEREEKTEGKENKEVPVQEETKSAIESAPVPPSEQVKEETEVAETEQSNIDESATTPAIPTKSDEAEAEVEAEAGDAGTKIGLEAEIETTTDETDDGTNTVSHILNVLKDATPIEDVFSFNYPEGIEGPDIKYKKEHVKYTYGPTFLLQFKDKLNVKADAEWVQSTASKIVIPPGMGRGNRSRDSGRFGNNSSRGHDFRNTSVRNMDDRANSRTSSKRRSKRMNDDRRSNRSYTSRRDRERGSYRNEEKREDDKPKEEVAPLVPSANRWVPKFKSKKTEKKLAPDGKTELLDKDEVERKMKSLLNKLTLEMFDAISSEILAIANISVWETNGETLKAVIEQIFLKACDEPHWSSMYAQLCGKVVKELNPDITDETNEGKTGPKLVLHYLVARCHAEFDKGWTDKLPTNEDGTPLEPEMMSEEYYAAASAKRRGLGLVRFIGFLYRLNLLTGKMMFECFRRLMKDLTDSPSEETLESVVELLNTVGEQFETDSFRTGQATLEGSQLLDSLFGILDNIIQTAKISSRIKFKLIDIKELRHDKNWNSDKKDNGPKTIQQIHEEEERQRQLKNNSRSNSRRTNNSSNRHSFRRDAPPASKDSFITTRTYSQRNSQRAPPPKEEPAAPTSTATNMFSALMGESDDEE

B1: Cbc1p (protein, UniProt P34160 1-861)
chain: T1 sequence
B2: Upf3p (protein, UniProt P48412 1-387)
chain: T3 sequence
B3: Nrd1p (protein, UniProt P53617 1-575)
chain: MQQDDDFQNFVATLESFKDLKSGISGSRIKKLTTYALDHIDIESKIISLIIDYSRLCPDSHKLGSLYIIDSIGRAYLDETRSNSNSSSNKPGTCAHAINTLGEVIQELLSDAIAKSNQDHKEKIRMLLDIWDRSGLFQKSYLNAIRSKCFAMDISNNTANTASQQLSLDPKQRSKQILSNLKKSPPLNLNISLPTDLTSTDPAKQQAALFQVIAALQKHFKTLPSHTSVGTVAPPQAHTITEYGSRRERERERERYNSRRNRSRSPPAPFSQPSTGRKDRYPSVAQDQYSIGAPNTTFGTNNHHLYPDELNVSNNPHYRPKPVSYDSTLPPDHIKVYSRTLFIGGVPLNMKEWDLANVLKPFAEVQSVILNNSRKHAFVKVYSRHEAENVLQNFNKDGALPLRTRWGVGFGPRDCCDYQHGYSIIPMHRLTDADKKWSVSAQWGGTSGQPLVTGIVFEEPDIIVGEGVSSKAISQKMPTDSGRNGPRSGKPNKSGSISSISPVPYGNAPLASPPPQQYVQPMMQQPYGYAPNQPLPSQGPAAAAPPVPQQQFDPTAQLNSLMNMLNQQQQQQQQS
B4: Rrp4p (protein, UniProt P38792 1-359)
chain: MSEVITITKRNGAFQNSSNLSYNNTGISDDENDEEDIYMHDVNSASKSESDSQIVTPGELVTDDPIWMRGHGTYFLDNMTYSSVAGTVSRVNRLLSVIPLKGRYAPETGDHVVGRIAEVGNKRWKVDIGGKQHAVLMLGSVNLPGGILRRKSESDELQMRSFLKEGDLLNAEVQSLFQDGSASLHTRSLKYGKLRNGMFCQVPSSLIVRAKNHTHNLPGNITVVLGVNGYIWLRKTSQMDLARDTPSANNSSSIKSTGPTGAVSLNPSITRLEEESSWQIYSDENDPSISNNIRQAICRYANVIKALAFCEIGITQQRIVSAYEASMVYSNVGELIEKNVMESIGSDILTAEKMRGNGN

Assays:
Test in all cases: co-IP
[1] = biological target: T1, C-terminally TAP-tagged Cbc1p (S. cerevisiae)
[2] = biological target: T2, C-terminally TAP-tagged Tif4631p (S. cerevisiae)
Upf3p-HA (S. cerevisiae) = biological target: T3, Upf3p-HA (S. cerevisiae)
[3] = biological target: C-terminally FLAG-tagged Dbp2p (S. cerevisiae) (UniProt P24783)
[4] = biological target: T4, TAP-tagged Tif4631p-ΔRRM1 (S. cerevisiae)

Row | Molecule | binding [1] | binding [2] | binding (Upf3p-HA (S. cerevisiae)) | binding [3] | binding [4]
1 | Dbp2p (from UniProt P24783 1-546) | binds | binds | binds | – | –
2 | B1 | – | binds | binds | binds | –
3 | B2 | binds | binds | – | binds | –
4 | B3 | binds | binds | binds | binds | binds
5 | B4 | binds | binds | binds | binds | no binding
